# Experimental data from the supplement of paper PMC8728848.
# The list shows a part of the results.
# How the values were obtained:
# Test in all cases: glycan array binding signal (z-score within array); higher = stronger binding
# Conditions in all cases: glycan notation: IUPAC condensed, linker removed
# [1] = target: Neu5Ac(a2-6)GlcNAc(b1-4)GlcNAc(b1-4)GlcNAc
# Method in brief: (§1)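 Glycan array data came from 3228 arrays in the Consortium for Functional Glycomics database, and only arrays with an available protein sequence were kept. Glycan names were put into IUPAC-condensed notation, and columns mapping to the same glycan were averaged. The binding signal is a within-array Z-score, averaged across arrays of one protein sequence run at different concentrations or buffers and across linkers. A negative Z-score can be read as non-binding.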
# [2] = target: Neu5Ac(a2-8)Neu5Ac
# Method in brief: as §1
# [3] = target: Neu5Ac(a2-8)Neu5Ac(a2-3)Gal(b1-3)GalNAc(b1-4)[Neu5Ac(a2-3)]Gal(b1-4)Glc
# Method in brief: as §1
# [4] = target: Neu5Ac(a2-8)Neu5Ac(a2-3)Gal(b1-3)GalNAc(b1-4)[Neu5Ac(a2-8)Neu5Ac(a2-3)]Gal(b1-4)Glc
# Method in brief: as §1
# [5] = target: Neu5Ac(a2-8)Neu5Ac(a2-3)Gal(b1-4)Glc
# Method in brief: as §1
# [6] = target: Neu5Ac(a2-8)Neu5Ac(a2-3)Gal(b1-4)GlcNAc
# Method in brief: as §1
# [7] = target: Neu5Ac(a2-8)Neu5Ac(a2-3)[Gal(b1-3)GalNAc(b1-4)]Gal(b1-4)Glc
# Method in brief: as §1
# [8] = target: Neu5Ac(a2-8)Neu5Ac(a2-3)[GalNAc(b1-4)]Gal(b1-4)Glc
# Method in brief: as §1
# [9] = target: Neu5Ac(a2-8)Neu5Ac(a2-8)Neu5Ac
# Method in brief: as §1
# [10] = target: Neu5Ac(a2-8)Neu5Ac(a2-8)Neu5Ac(a2-3)Gal(b1-4)Glc
# Method in brief: as §1
# [11] = target: Neu5Ac(a2-8)Neu5Ac(a2-8)Neu5Ac(a2-3)[Gal(b1-3)GalNAc(b1-4)]Gal(b1-4)Glc
# Method in brief: as §1
# [12] = target: Neu5Ac(a2-8)Neu5Ac(a2-8)Neu5Ac(a2-3)[GalNAc(b1-4)]Gal(b1-4)Glc
# Method in brief: as §1
# [13] = target: Neu5Ac(a2-8)Neu5Ac(a2-8)Neu5Ac(a2-8)Neu5Ac(a2-3)[GalNAc(b1-4)]Gal(b1-4)Glc
# Method in brief: as §1
# [14] = target: Neu5Ac(a2-8)Neu5Gc(a2-3)Gal(b1-4)GlcNAc
# Method in brief: as §1
# [15] = target: Neu5Ac(b2-6)Gal(b1-4)GlcNAc
# Method in brief: as §1
# [16] = target: Neu5Ac(b2-6)GalNAc
# Method in brief: as §1
# [17] = target: Neu5Ac9Ac(a2-3)Gal(b1-3)GlcNAc
# Method in brief: as §1
# [18] = target: Neu5Ac9Ac(a2-3)Gal(b1-4)GlcNAc
# Method in brief: as §1
# [19] = target: Neu5Ac9Ac(a2-6)Gal(b1-4)GlcNAc
# Method in brief: as §1
# [20] = target: Neu5Gc(a2-3)Gal(b1-3)GlcNAc
# Method in brief: as §1
# [21] = target: Neu5Gc(a2-3)Gal(b1-3)[Fuc(a1-4)]GlcNAc
# Method in brief: as §1
# [22] = target: Neu5Gc(a2-3)Gal(b1-4)Glc
# Method in brief: as §1
# [23] = target: Neu5Gc(a2-3)Gal(b1-4)GlcNAc
# Method in brief: as §1
# [24] = target: Neu5Gc(a2-3)Gal(b1-4)GlcNAc(b1-3)Gal(b1-4)GlcNAc(b1-2)Man(a1-3)[Neu5Gc(a2-3)Gal(b1-4)GlcNAc(b1-3)Gal(b1-4)GlcNAc(b1-2)Man(a1-6)]Man(b1-4)GlcNAc(b1-4)GlcNAc
# Method in brief: as §1
# [25] = target: Neu5Gc(a2-3)Gal(b1-4)[Fuc(a1-3)]GlcNAc
# Method in brief: as §1
# [26] = target: Neu5Gc(a2-6)Gal(b1-4)GlcNAc
# Method in brief: as §1
# [27] = target: Neu5Gc(a2-6)GalNAc
# Method in brief: as §1
# [28] = target: Neu5Gc(a2-8)Neu5Ac(a2-3)Gal(b1-4)GlcNAc
# Method in brief: as §1
# [29] = target: Neu5Gc(a2-8)Neu5Gc(a2-3)Gal(b1-4)GlcNAc
# Method in brief: as §1
# [30] = target: Neu5Gc(a2-8)Neu5Gc(a2-3)Gal(b1-4)GlcNAc(b1-3)Gal(b1-4)GlcNAc
# Method in brief: as §1
# [31] = target: Neu5Gc(a2-8)Neu5Gc(a2-6)Gal(b1-4)GlcNAc
# Method in brief: as §1
# [32] = target: Neu5Gc(b2-6)Gal(b1-4)GlcNAc
# Method in brief: as §1
binder,measurement,setting,value
Mnn9-2N3 (Aspergillus fumigatus) (protein) MAVARRMRRTNPITLLLAAILAIGFFIFVLSPSTTSASPVKAGSASSSSTSQQRREDNAAENPLSPPTKPFFKSQPVRHDGQQAPPPVVQYNLNQLSSTSTSAANGERILILTPMARFVPEYWDNVVKLTYPHELISIGFIIPKNKEGNAALAALEAAIAKTQSGPIDKRFASISILRQDFEPPLQSQDEKERHKISNQKARRESMSRARNSLLFTTLGPATAWVLWLDADIVETPPTLIQDLTAHDHPVLVPNCYQRYYNSEKKKMDVRPYDYNSWIDSSTAQSMAAEMGPDEILLEGYAEMPTYRTLMAHLADTANPNPKKVIELDGVGGTALMVKAEVHRDGAMFPAFPFYHLVETEGFAKMAKRLGYSVYGLPDYFVSRNFFFFFFFFFFG,glycan array binding signal (z-score),[1],0.098
same,glycan array binding signal (z-score),[2],-0.118
same,glycan array binding signal (z-score),[3],-2.03
same,glycan array binding signal (z-score),[4],-0.021
same,glycan array binding signal (z-score),[5],2.12
same,glycan array binding signal (z-score),[6],0.48
same,glycan array binding signal (z-score),[7],0.501
same,glycan array binding signal (z-score),[8],0.658
same,glycan array binding signal (z-score),[9],0.367
same,glycan array binding signal (z-score),[10],0.112
same,glycan array binding signal (z-score),[11],-0.54
same,glycan array binding signal (z-score),[12],0.617
same,glycan array binding signal (z-score),[13],0.676
same,glycan array binding signal (z-score),[14],0.221
same,glycan array binding signal (z-score),[15],0.179
same,glycan array binding signal (z-score),[16],-0.289
same,glycan array binding signal (z-score),[17],0.378
same,glycan array binding signal (z-score),[18],0.369
same,glycan array binding signal (z-score),[19],1.35
same,glycan array binding signal (z-score),[20],0.304
same,glycan array binding signal (z-score),[21],-0.265
same,glycan array binding signal (z-score),[22],-0.055
same,glycan array binding signal (z-score),[23],0.163
same,glycan array binding signal (z-score),[24],1.58
same,glycan array binding signal (z-score),[25],0.279
same,glycan array binding signal (z-score),[26],0.416
same,glycan array binding signal (z-score),[27],0.188
same,glycan array binding signal (z-score),[28],0.382
same,glycan array binding signal (z-score),[29],1.21
same,glycan array binding signal (z-score),[30],0.097
same,glycan array binding signal (z-score),[31],0.089
same,glycan array binding signal (z-score),[32],-0.3

# Quoted at random: 2 records from the list.
binder,measurement,setting,value
Mnn9-2N3 (Aspergillus fumigatus) (protein) MAVARRMRRTNPITLLLAAILAIGFFIFVLSPSTTSASPVKAGSASSSSTSQQRREDNAAENPLSPPTKPFFKSQPVRHDGQQAPPPVVQYNLNQLSSTSTSAANGERILILTPMARFVPEYWDNVVKLTYPHELISIGFIIPKNKEGNAALAALEAAIAKTQSGPIDKRFASISILRQDFEPPLQSQDEKERHKISNQKARRESMSRARNSLLFTTLGPATAWVLWLDADIVETPPTLIQDLTAHDHPVLVPNCYQRYYNSEKKKMDVRPYDYNSWIDSSTAQSMAAEMGPDEILLEGYAEMPTYRTLMAHLADTANPNPKKVIELDGVGGTALMVKAEVHRDGAMFPAFPFYHLVETEGFAKMAKRLGYSVYGLPDYFVSRNFFFFFFFFFFG,glycan array binding signal (z-score),[16],-0.289
same,glycan array binding signal (z-score),[19],1.35
